Measured values as given in PubChem BioAssay AID540256 (National Center for Advancing Translational Sciences (NCATS), 2011).
The campaign covered roughly 300,000 compounds. About 3,700 (1.2%) were called active. The call rests on the fitted dose curve; tested in HEK293 cells. Inconclusive results, whose numbers are uncertain, are shown. A potency beside an inconclusive call is a rough fit, not a confirmed value.

Assay: qHTS for Inhibitors of binding or entry into cells for Lassa Virus; further: nearly all actives have a fitted effect of over 50% in size
Conditions: Lassa virus pseudotype entry inhibition, cell reporter; series mostly up to 37.9 µM
Potency means the concentration at half of the fitted maximal effect.

SMILES	Potency
O=C(O)Cn1cc(/C=c2/sc3nc4ccccc4n3c2=O)c2ccccc21	inconclusive: 2 µM [activator, full curve]
COc1cc(/C=N/Nc2ccc(Cl)c(C(=O)O)c2)ccc1OC(=O)c1ccc(F)cc1	inconclusive: 12.6 µM [inhibitor, partial curve, poor fit]
CC(C)(C)CC(C)(C)c1ccc(OCC(=O)N/N=C/c2ccc(S(=O)(=O)O)o2)cc1	inconclusive: 6.31 µM [inhibitor, single point]
